# PubChem BioAssay AID1159584 | Peter MacCallum Cancer Centre | 2016
# Screen: 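Knock-downs that harm CDH1-null cells more than parental MCF10A cells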 (primary screen)
# Cell system: human MCF10A breast epithelial cells, parental and CDH1-null
# Reagents: siRNA against human genes
# Measurement: 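ATP luminescence (CellTiter-Glo) viability per line relative to mean mock wells over all plates, and the ratio of CDH1-null to parental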
# Reading the numbers: CDH1-null / parental viability ratio: higher = CDH1-null cells survive relatively better than parental
# Shown is one part, drawn at random, of about 18,000 reagents tested. Not all columns of the deposit are shown. Not stated in the record: the amount of reagent, the time to read-out.
Gene,PubChem SID,CDH1-null / parental viability ratio
NPPA,SID135622381,1.36
OR6C75,SID134329938,1.34
MRPS30,SID135622480,0.98
YAE1,SID152148877,0.91
NIM1K,SID56478948,0.95
PRRC2A,SID152156461,1.11
RPL14,SID152149776,1.19
CEACAM1,SID152147499,1.12
ST13,SID134321317,0.94
BTD,SID152153036,1.03
ATP10A,SID152147237,0.98
RORA,SID134309891,0.95
KCNJ3,SID134311666,0.98
RANBP3,SID134315819,0.81
WDR31,SID152150403,1.02
OR5K1,SID135624758,0.86
CLLU1-AS1,SID135625410,0.66
CDA,SID135622352,0.88
GTPBP3,SID134319023,1.01
RBMS3,SID152152362,0.97
KRT10,SID134325593,1.28
NSD1,SID134312171,0.89
BAZ2B,SID135623995,0.91
DEPP1,SID152153413,0.86
TAFA4,SID152156337,1.13
REEP6,SID134319591,1.21
OR6A2,SID135621712,0.8
PHKA2,SID56479176,0.95

2 entries from above, set out differently.
Gene | PubChem SID | CDH1-null / parental viability ratio
RORA | SID134309891 | 0.95
KCNJ3 | SID134311666 | 0.98
